# About 13,000 (3.2%) of roughly 400,000 compounds were called active. The inconclusive results got no clear call from the source; some entries with a clear call stand among them for comparison. Calls come from the whole dose curve; as a rule, active = well fitted cell-killing curve with a large enough effect; inconclusive = small, poorly fitted or top-dose-only effect, or effect the other way; inactive = flat fitted curve, though single readings scatter. Where the call is inconclusive, the potency comes from a doubtful curve fit.
# Test: qHTS assay for MDR1-selective chemotherapeutics: Primary screen using the drug-selected MDR subline cells KB-V1; note: nearly all actives have a fitted effect of over 60% in size
# Details: KB-V1 MDR cells viability, CellTiter-Glo, 72 h; activity change, negative = cytotoxicity: at 46.1 µM (top of the series)
# Outline: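 KB-V1 MDR subline cells in DMEM (phenol-red free, 10% FBS) exposed to compounds in qHTS concentration series for 72 h at 37 degrees C. Viability read by CellTiter-Glo luminescence; concentration-effect curves fitted after normalization and correction.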
# % is set by controls: 0 for no effect and ±100 for the full control effect; potency is the fitted concentration of half-maximal effect.
SMILES,"activity change, negative = cytotoxicity",Potency
COc1ccc(CNc2nc(NC(C)=O)nn2-c2ccccc2)cc1,inactive: 7.19%,–
CSc1cccc(CN2CCCC(CNC(=O)c3ccco3)C2)c1 (stereo unspecified),–,"inconclusive: 18.4 µM [cytotoxic, single point]"
COc1cccc(N/C=C/c2onc(C)c2[N+](=O)[O-])c1,–,"inconclusive: 23.1 µM [rising, single point]"
CCOC(=O)c1cccc(NC(=O)CCc2c(C)nc3c4cccnc4nn3c2C)c1,–,"inconclusive: 20.6 µM [rising, partial curve, poor fit]"
CC1(CC(=O)Nc2ccccc2)NC(=S)N(c2ccccc2)N1 (stereo unspecified),inactive: -6.66%,–
O=C(CSc1nnnn1C1CCCC1)Nc1ccccc1F,–,"inconclusive: 18.4 µM [cytotoxic, single point]"
COc1ccc(NC(=O)C2CCN(S(=O)(=O)c3ccc4c(c3)NC(=O)C(C)S4)CC2)cc1 (stereo unspecified),inactive: -3.43%,–
Cc1ccc(CN2C(=O)C3(SCC(=O)N3c3ccc(C)c(C)c3)c3ccccc32)cc1 (stereo unspecified),–,active: 18.4 µM
CCOC(=O)c1c(C)nc(SCC(N)=O)c(C#N)c1-c1ccccc1,–,"inconclusive: 29.1 µM [cytotoxic, single point]"
O=C(c1ccccc1)N1CCC(c2nc(-c3ccc(S(=O)(=O)NCC4CCCO4)cc3)no2)CC1 (stereo unspecified),–,active: 9.2 µM
COC(CN(C)C(C(=O)NC1CCCCC1)c1ccccc1)OC (stereo unspecified),–,"inconclusive: 29.1 µM [cytotoxic, single point]"
Cn1c(=O)n(C)c2cc(CNCc3ccc(C(=O)O)cc3)ccc21,–,"inconclusive: 11.6 µM [rising, partial curve]"
Nc1cc2c(cc1Br)[nH]c(=O)c1ccccc12,–,"inconclusive: 18.4 µM [cytotoxic, single point]"
O=C(c1ccc(Cn2c(=S)[nH]c3ccc(Br)cc3c2=O)cc1)N1CCN(C2CCCCC2)CC1,–,active: 18.4 µM
O=C(Cc1ccccc1)Nc1ccc2c(c1)CCC2,–,"inconclusive: 29.1 µM [cytotoxic, single point]"
O/N=C/c1ccc2cccc(O)c2n1,–,"inconclusive: 25.9 µM [cytotoxic, partial curve, poor fit]"
Cc1cc(C)c(OCC(=O)Nc2nnc(C3CC3)s2)c(C)c1,inactive: 0%,–
Cc1cccc(-n2ncc3c(NCc4ccc5c(c4)OCO5)ncnc32)c1,inactive: 17.8%,–
CCOC(=O)C1CCCN(C(=O)C2CCN(S(=O)(=O)c3ccc(Cl)c(C(F)(F)F)c3)CC2)C1 (stereo unspecified),–,active: 20.6 µM
CCOCCn1ccc2c(OCC(=O)Nc3cc(C(F)(F)F)ccc3Cl)cccc2c1=O,inactive: 0.963%,–
O=S(=O)(c1ccc(Cl)cc1)N1CCN(CCc2ccncc2)CC1,inactive: -8.92%,–

# Reference: PubChem BioAssay AID1347076 (National Center for Advancing Translational Sciences (NCATS), 2019)
